Assay results taken from the supplement of paper PMC3334620.
In all, about 33,000 sequences were measured (“E-score (-0.5 to 0.5)”: median about -0.0059, highest 2% from about 0.26 on). This is one part of the list.

target: T1, Cin5 (UniProt P40917); assay: PBM E-score (8-mer binding enrichment) (E-score (-0.5 to 0.5)); higher = stronger / more preferred TF binding; conditions: protein concentration: 100 nM; construct: GST-full length
T1 sequence: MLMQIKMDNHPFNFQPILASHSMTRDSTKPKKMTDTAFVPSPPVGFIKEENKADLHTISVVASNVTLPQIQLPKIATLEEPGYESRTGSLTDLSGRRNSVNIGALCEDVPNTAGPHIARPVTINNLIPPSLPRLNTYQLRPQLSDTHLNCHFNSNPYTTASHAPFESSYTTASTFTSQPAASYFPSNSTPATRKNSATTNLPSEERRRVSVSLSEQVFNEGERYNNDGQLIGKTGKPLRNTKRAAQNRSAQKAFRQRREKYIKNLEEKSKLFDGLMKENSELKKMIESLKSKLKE
In short: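 Bound GST-tagged yeast transcription factors, applied at about 100-200 nM to double-stranded universal all-10-mer Agilent arrays, were detected with fluorescent anti-GST. Scans were normalised with masliner. A modified Wilcoxon-Mann-Whitney statistic, the E-score, was assigned to each ungapped eight-base word pooled with its reverse complement by the Universal PBM Analysis Suite.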

Row | Sequence | PBM E-score
1 | CAATAGTG | 0.0181
2 | GGTGGAGA | -0.256
3 | CAGATTGA | 0.0594
4 | CTGGTGAC | -0.13
5 | GGAAAGCA | -0.112
6 | AGAAACTG | -0.0909
7 | CTCCTGCC | -0.108
8 | GGCAATAA | 0.155
9 | CGACTTAA | -0.137
10 | CGAACTGC | 0.0147
11 | TGTCGAAA | -0.0736
12 | AGTAAGGG | 0.0482
13 | ATCTAGTG | 0.0477
14 | ATTGGAAG | 0.0337
15 | GCACAATA | -0.0962
16 | ATGTATCC | 0.0758
17 | GATGCGAA | 0.144
18 | GGCTCGCA | 0.0063
19 | ACCCTGCC | -0.173
20 | ATACCATG | 0.0359
21 | ACAAATCT | 0.00999
22 | AGGAATAA | 0.109
23 | CCGATTTA | 0.0837
24 | ACCTAAGA | 0.131

Row | Sequence | PBM E-score
25 | AGGATGGC | -0.0711
26 | ACACTCCG | 0.0345
27 | CAGAGTGA | 0.111
28 | AACTCGAT | 0.15
29 | AAGACCAC | -0.205
30 | CTCATTGA | -0.207
31 | CAGTGTGC | -0.163
32 | ATAAGATA | 0.223
33 | AGTATAAG | 0.239
34 | CGACAGTC | -0.299
35 | CGAGAGTA | 0.115
36 | AGCAGCTG | -0.0182
37 | AAACCGTT | -0.0552
38 | GTAGGCGA | -0.0604
39 | GTAGCCAA | -0.0505
40 | CGCTGGCC | -0.393
41 | CCAGAGAG | -0.174
42 | AATCACCG | 0.0462
43 | TGCCGAAA | -0.155
44 | CCGCTATA | 0.0976
45 | AATAGGAA | 0.15
46 | AGGCTATC | -0.0571
47 | AATTCGAT | 0.158
48 | GTACTCAA | 0.101

Quoted at random: 5 entries already listed, in no set order.
Row | Sequence | PBM E-score
23 | CCGATTTA | 0.0837
32 | ATAAGATA | 0.223
10 | CGAACTGC | 0.0147
30 | CTCATTGA | -0.207
37 | AAACCGTT | -0.0552

Later entries

Row | Sequence | PBM E-score
49 | ACGTGGGA | -0.162
50 | AGAGGTTA | 0.0261
51 | ACAACTCA | 0.153
52 | CCAGACGG | -0.29
53 | CGATGCCC | -0.287
54 | CGGTGCGA | -0.0828
55 | AATTGGAA | 0.127
56 | ATTGGAGA | 0.173
57 | CCCCTGCC | -0.0676
58 | AACAGGGT | -0.118
59 | TCACATGA | -0.107
60 | GAATACGA | 0.101
61 | GGGGACAA | -0.116
62 | AACTACTG | 0.0741
63 | CACGAGTA | 0.128
64 | ATAGACAA | 0.211
65 | AGTTGCGC | 0.0668
66 | ATGGATAG | 0.0793
67 | GGGGGTAA | -0.371
68 | AAGTTAGT | -0.0212
69 | GGGGGGGA | -0.47
70 | AAGTAACG | -0.0154
71 | ACAGGGTA | 0.0496
72 | GATGAGGA | -0.0911

Row | Sequence | PBM E-score
73 | GGATTGAA | 0.104
74 | ATTCGAGC | -0.127
75 | TATAGACA | 0.147
76 | GTATGAAA | 0.139
77 | AGGCGTTC | -0.281
78 | CGCTGCCA | -0.143
79 | CCACGATC | 0.131
80 | GTCTTTGA | -0.241
81 | AGCAGACG | 0.0437
82 | ACGTTTAT | 0.1
83 | TAGGTACA | -0.146
84 | CAACATCA | 0.201
85 | CCTGCGGA | -0.0122
86 | ACCCCCCC | -0.492
87 | ACCCCGGC | -0.182
88 | CTCAAGTA | -0.0379
89 | AGGCCAGC | -0.254
90 | GATAACGC | -0.00744
91 | CAGATACA | 0.119
92 | CGATAACG | 0.00767
93 | CATGCATC | 0.169
94 | ACCAAAAT | 0.0941
